Assay results taken from publication PMC12172489.
Results are given in words; binding and its absence hold for the method and conditions named. In cells and extracts the contact can be indirect. Some results given as binding are weak or reduced against the parent protein; the word gives no strength.

Chains of the proteins cited; added tags and fusions are not shown.
UniProt P15682: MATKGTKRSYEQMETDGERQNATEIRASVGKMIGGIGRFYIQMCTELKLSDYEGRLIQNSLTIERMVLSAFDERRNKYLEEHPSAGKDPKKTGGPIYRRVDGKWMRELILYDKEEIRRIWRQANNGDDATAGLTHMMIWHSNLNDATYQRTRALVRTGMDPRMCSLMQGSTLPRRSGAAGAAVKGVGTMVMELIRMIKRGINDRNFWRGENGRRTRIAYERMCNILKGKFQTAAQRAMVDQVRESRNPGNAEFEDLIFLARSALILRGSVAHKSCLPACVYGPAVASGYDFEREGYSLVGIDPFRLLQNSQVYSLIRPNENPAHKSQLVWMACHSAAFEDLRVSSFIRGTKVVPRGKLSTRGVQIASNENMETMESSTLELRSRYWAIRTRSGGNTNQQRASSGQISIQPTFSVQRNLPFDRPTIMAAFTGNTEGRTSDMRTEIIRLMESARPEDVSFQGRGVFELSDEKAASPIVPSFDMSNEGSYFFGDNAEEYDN
UniProt P03427: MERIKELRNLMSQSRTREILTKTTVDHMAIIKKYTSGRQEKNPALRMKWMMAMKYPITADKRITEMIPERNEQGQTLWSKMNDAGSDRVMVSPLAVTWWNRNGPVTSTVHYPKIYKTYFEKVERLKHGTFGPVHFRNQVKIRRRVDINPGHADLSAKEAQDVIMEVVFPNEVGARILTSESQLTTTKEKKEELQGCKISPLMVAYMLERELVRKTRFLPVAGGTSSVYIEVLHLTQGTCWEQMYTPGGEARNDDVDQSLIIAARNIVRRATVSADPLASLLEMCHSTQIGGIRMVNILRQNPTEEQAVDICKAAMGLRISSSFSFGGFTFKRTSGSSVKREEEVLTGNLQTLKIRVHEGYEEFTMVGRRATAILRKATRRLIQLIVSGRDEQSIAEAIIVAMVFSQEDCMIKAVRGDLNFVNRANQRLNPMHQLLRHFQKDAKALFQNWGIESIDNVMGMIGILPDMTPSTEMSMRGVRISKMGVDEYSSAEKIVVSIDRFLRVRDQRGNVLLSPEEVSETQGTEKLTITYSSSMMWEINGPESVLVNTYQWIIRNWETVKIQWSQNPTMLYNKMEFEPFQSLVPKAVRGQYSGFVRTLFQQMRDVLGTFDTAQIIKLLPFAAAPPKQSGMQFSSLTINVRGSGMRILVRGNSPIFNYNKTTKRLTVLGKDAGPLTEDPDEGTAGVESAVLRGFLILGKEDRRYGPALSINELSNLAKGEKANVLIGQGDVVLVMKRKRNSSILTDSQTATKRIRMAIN

B1: Heterogeneous nuclear ribonucleoprotein M (hnRNPM) (protein, UniProt P52272 1-730)
chain: MAAGVEAAAEVAATEIKMEEESGAPGVPSGNGAPGPKGEGERPAQNEKRKEKNIKRGGNRFEPYANPTKRYRAFITNIPFDVKWQSLKDLVKEKVGEVTYVELLMDAEGKSRGCAVVEFKMEESMKKAAEVLNKHSLSGRPLKVKEDPDGEHARRAMQKVMATTGGMGMGPGGPGMITIPPSILNNPNIPNEIIHALQAGRLGSTVFVANLDYKVGWKKLKEVFSMAGVVVRADILEDKDGKSRGIGTVTFEQSIEAVQAISMFNGQLLFDRPMHVKMDERALPKGDFFPPERPQQLPHGLGGIGMGLGPGGQPIDANHLNKGIGMGNIGPAGMGMEGIGFGINKMGGMEGPFGGGMENMGRFGSGMNMGRINEILSNALKRGEIIAKQGGGGGGGSVPGIERMGPGIDRLGGAGMERMGAGLGHGMDRVGSEIERMGLVMDRMGSVERMGSGIERMGPLGLDHMASSIERMGQTMERIGSGVERMGAGMGFGLERMAAPIDRVGQTIERMGSGVERMGPAIERMGLSMERMVPAGMGAGLERMGPVMDRMATGLERMGANNLERMGLERMGANSLERMGLERMGANSLERMGPAMGPALGAGIERMGLAMGGGGGASFDRAIEMERGNFGGSFAGSFGGAGGHAPGVARKACQIFVRNLPFDFTWKMLKDKFNECGHVLYADIKMENGKSKGCGVVKFESPEVAERACRMMNGMKLSGREIDVRIDRNA

What was measured:
[1] = biological target: T1, Heterogeneous nuclear ribonucleoprotein M (hnRNPM) (human (endogenous in A549)) (UniProt P52272); assay: co-IP
T1 sequence: B1 chain

[2] = substrate: NP of influenza A/WSN/33 (WSN, H1N1) virus (influenza A/WSN/33 (WSN, H1N1) virus) (UniProt P15682); assay: co-IP

Molecule	binding [1]	binding [2]
NP of influenza A/WSN/33 (WSN, H1N1) virus (from UniProt P15682 1-498)	binds	
PB2 of influenza A/WSN/33 (WSN, H1N1) virus (from UniProt P03427 1-759)	binds	
B1		binds
